Results taken from patent US20060142323A1, “Dual binding site acetylcholinesterase inhibitors for the treatment of alzheimer's disease” (priority 2002, published 2006).

The chains behind the UniProt entries cited, without tags or fusion partners. Residues count along the entry.
UniProt P22303, 32-614 limits assumed: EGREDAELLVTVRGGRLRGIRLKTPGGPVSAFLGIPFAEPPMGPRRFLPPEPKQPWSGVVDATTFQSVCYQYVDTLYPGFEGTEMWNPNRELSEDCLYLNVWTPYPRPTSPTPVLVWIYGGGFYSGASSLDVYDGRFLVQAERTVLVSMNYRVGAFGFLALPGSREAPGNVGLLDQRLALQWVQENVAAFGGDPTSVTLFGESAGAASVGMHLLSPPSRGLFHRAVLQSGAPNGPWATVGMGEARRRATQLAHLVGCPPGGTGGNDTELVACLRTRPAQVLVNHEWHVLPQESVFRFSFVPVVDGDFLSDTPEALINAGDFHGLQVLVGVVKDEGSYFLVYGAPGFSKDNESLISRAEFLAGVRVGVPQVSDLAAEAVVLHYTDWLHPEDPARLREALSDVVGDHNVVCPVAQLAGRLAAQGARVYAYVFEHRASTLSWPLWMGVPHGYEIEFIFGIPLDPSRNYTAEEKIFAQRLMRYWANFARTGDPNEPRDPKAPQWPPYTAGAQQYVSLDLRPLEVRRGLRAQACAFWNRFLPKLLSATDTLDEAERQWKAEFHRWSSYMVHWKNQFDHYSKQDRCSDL
UniProt P23795, 31-614 isoform 2 limits assumed: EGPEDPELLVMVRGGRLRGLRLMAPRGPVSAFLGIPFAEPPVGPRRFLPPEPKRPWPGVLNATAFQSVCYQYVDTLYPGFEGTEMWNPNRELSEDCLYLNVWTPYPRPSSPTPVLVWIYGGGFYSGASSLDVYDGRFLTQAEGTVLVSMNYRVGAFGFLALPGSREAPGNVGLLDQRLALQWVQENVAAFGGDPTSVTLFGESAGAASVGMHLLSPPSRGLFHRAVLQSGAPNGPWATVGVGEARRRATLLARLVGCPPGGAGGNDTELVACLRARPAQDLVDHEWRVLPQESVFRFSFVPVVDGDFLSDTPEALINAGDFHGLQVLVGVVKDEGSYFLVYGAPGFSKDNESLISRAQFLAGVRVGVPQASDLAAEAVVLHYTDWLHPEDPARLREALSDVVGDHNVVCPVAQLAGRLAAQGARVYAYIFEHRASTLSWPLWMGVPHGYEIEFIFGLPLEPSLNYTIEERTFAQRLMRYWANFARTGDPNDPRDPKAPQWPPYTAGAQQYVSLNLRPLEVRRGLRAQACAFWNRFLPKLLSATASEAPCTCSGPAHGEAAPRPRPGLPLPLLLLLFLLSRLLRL
UniProt P06276, 29-602 limits assumed: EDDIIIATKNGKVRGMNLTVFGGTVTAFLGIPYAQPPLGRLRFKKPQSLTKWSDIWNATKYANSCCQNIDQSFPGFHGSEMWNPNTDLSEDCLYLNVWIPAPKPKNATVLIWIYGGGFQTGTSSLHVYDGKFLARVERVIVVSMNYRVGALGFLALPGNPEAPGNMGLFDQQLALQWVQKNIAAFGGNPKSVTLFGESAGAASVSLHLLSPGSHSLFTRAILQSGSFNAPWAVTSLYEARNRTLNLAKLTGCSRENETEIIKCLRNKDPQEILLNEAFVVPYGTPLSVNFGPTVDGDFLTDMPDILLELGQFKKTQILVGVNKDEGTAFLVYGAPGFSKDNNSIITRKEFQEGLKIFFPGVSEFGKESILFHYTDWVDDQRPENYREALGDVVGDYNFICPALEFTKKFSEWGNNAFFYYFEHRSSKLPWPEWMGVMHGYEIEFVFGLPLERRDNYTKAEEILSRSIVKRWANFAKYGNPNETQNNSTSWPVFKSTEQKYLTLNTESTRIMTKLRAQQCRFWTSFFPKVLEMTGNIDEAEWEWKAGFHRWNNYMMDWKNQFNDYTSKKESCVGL

Columns and labels:
AChE peripheral site = AChE peripheral site (Homo sapiens, UniProt P22303); assay: Propidium competition (fluorescence); assay type: binding; settings: 20 μM propidium iodide, AChE incubated at least 6 hours with compound
[1] = test system: human neuroblastoma cell line SH—SY5Y; assay: Toxicity measurement (LDH) in SH-SY5Y cells; assay type: cell-based; settings: 24 hours exposure
Description: The cytotoxicity effect of the molecules was tested in the human neuroblastoma cell line SH—SY5Y. These cells were cultured in 96-well plates in minimum essential medium, Han's F12 medium, supplemented with 10% fetal bovine serum, 1% glutamine and 1% penicillin/streptomycin, and grown in. a 5% CO2 humidified incubator at 37° C.
The cells were plated at 10^4 cells for each well, at least, 48 hours before the toxicity measure. Cells were exposed for 24 hours to the compounds at different concentrations (from 10^−5 to 10^−9), quantitative assessment of cell death was made by measurement of the intracellular enzyme lactate dehydrogenase (LDH) (citotoxicity detection kit, Roche). The cuantity of LDH was evaluated in a microplate reader Anthos 2010, at 492 and 620 nm. Controls were taken as 100% viability.

[2] = target: AChE from bovine erythrocytes (Bos taurus, UniProt P23795); assay: Acetylcholinesterase (AChE) inhibition (from bovine erythrocytes), Ellman method at 30° C., Digiscan 340T; assay type: biochemical; settings: read-out: IC50 AchE, 5 min preincubation
BuChE from human serum = BuChE from human serum (Homo sapiens, UniProt P06276); assay: Butyrylcholinesterase (BuChE) inhibition (from human serum); assay type: biochemical; settings: read-out: IC50 BuChE, 30° C., 10 min preincubation

O=C1c2ccccc2C(=O)C1NCCCCCCNc1c2c(nc3ccccc13)CCCC2
Propidium competition (AChE peripheral site): >100 µM | Toxicity [1]: 10 µM | IC50 [2]: 500 nM | IC50 (BuChE from human serum): 100 nM

Structures were worked out from names or drawings and are uncertain.
